# “And” between values parts separate entries of the source, which are not always exact repeats. Equal entries are not always repeated. The whole screen tested about 320,000 compounds, of which about 22,000 (6.9%) were called active. Inconclusive means that the source gave no clear call. Such entries were picked first, then a sample of the others. Calls follow the shape of the dose curve; as a rule, active = well fitted inhibition curve with a large enough effect; inconclusive = small, poorly fitted or top-dose-only effect, or another doubt; inactive = no such curve, though single readings can be large or run the other way. Where the call is inconclusive, the potency comes from a doubtful curve fit.
# Experiment: Primary qHTS for delayed death inhibitors of the malarial parasite plastid, 96 hour incubation
# Conditions: P. falciparum luciferase reporter growth; series mostly up to 28.7 µM; activity change, negative = inhibition: at the top concentration
# How it was run: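 Two parasite generations (96 h, 37 C, 5% CO2) of compound exposure in infected erythrocytes (0.05% parasitemia, 2% hematocrit). Luciferase-reporter P. falciparum; decreased luminescence indicates inhibited growth, aimed at apicoplast-acting delayed death.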
# % is scaled to controls: 0 for no effect and ±100 for the full control effect; potency is read from the fitted curve at half-maximal effect.
SMILES,Potency,"activity change, negative = inhibition"
CN(CCCC(=O)Nc1nccs1)S(=O)(=O)c1ccc(Cl)cc1,"inconclusive: 11.7 µM [inhibitor, single point]",
O=C(Nc1ccncc1)Nc1ccccc1Cl,"inconclusive: 3.7 µM [inhibitor, full curve]",
CCCOc1ccc(-c2c(C(=O)N/N=C/c3ccc(C)o3)nnn2-c2nonc2N)cc1,"inconclusive: 0.828 µM [inhibitor, partial curve, poor fit]",
Nc1ccc([As](=O)(O)O)cc1,active: 5.36 µM and active: 8.28 µM,
O=C(N/N=C/c1cccc2ccccc12)C(=O)N1CCCC1,,inactive: 14.2%
CCC1C(c2ccccc2)NC(c2ccccc2)CC1(O)c1ccc(F)cc1 (stereo not drawn),"inconclusive: 3.29 µM [inhibitor, partial curve]",
CC(NC(=O)C(=O)N/N=C\c1cccc([N+](=O)[O-])c1)c1ccccc1 (stereo not drawn),"inconclusive: 14.7 µM [inhibitor, partial curve]",
O=C(c1cc(C2CC2)nc2ccc(Br)cc12)N1N=C(C(F)F)CC1(O)C(F)F (stereo not drawn),active: 9.28 µM,
COc1ccc(N(C(=O)/C=C/c2ccc(OC)c(OC)c2)C2=CC3CCC(C2)N3C)cc1 (stereo not drawn),,inactive: 162%
COc1ccc(N(CC(=O)NC2CCCCC2)S(=O)(=O)c2c(C)[nH]c(=O)[nH]c2=O)cc1,active: 5.86 µM,
COC(=O)c1sc2nc(CN3CCN(c4ccc(OC)cc4)CC3)[nH]c(=O)c2c1C,"inconclusive: 5.22 µM [inhibitor, partial curve]",
O=[N+]([O-])c1ccc(CN2CCN(c3ccc(Cl)cc3)CC2)o1,,inactive: -25.2%
CC(C)(C)C1=CC(O)(c2ccccc2)C=C(C(C)(C)C)C1=O,"inconclusive: 16.5 µM [inhibitor, single point]",
Cc1cc(NC(=O)COc2ccccc2)ccc1Cl,"inconclusive: 18.5 µM [inhibitor, single point]",
CCC1C(=O)NCCN1C(=O)c1ccc(OC)c(OC2CCN(C(C)=O)CC2)c1 (stereo not drawn),"inconclusive: 18.5 µM [inhibitor, single point]",
COCCNC(=O)Cn1c(=O)n(C)c2ccccc21,,inactive: 30.6%
O=C(CCN1C(=O)/C(=C/c2cccs2)SC1=S)Nc1cccc(C(=O)O)c1,,inactive: 8.33%
COc1cccc(C(=O)Oc2ccccc2/C=C\C(=O)c2cc3ccccc3o2)c1,"inconclusive: 9.28 µM [inhibitor, single point]",
COc1ccc(/C=C/C(=O)NCC(=O)N2CCC(N(C)CCN3CCOCC3)CC2)cc1OC,,inactive: 31.4%
C[C@H](CN1c2ccccc2Sc2cccnc21)N(C)C,active: 6.01 µM,
CCOc1ccc(Cl)cc1/C=N/NC(=O)CNC(=O)c1ccccc1,,inactive: 0.415%
C/C(=N\NC(N)=S)C1=CCC2C3CC[C@H]4CC(O)CC[C@]4(C)C3CC[C@]12C (stereo partly drawn),active: 11.7 µM,
Cc1ccc(NC(=O)Cn2nnc3ccccc32)c(C)c1,"inconclusive: 0.0033 µM [inhibitor, full curve, poor fit]",
CN(Cc1ccccc1NCC(=O)Nc1ccccc1C#N)C1CCCCC1,"inconclusive: 9.28 µM [inhibitor, single point]",
CCCN(CC(=O)Nc1ccccc1C)C(=O)c1oc2ccc(OCC)cc2c1C,active: 7.38 µM,

# As entered above:
# Entry of CCC1C(=O)NCCN1C(=O)c1ccc(OC)c(OC2CCN(C(C)=O)CC2)c1 (stereo not drawn) under Potency: inconclusive: 18.5 µM [inhibitor, single point]
# Entry of CN(Cc1ccccc1NCC(=O)Nc1ccccc1C#N)C1CCCCC1 under Potency: inconclusive: 9.28 µM [inhibitor, single point]
# Entry of CCCN(CC(=O)Nc1ccccc1C)C(=O)c1oc2ccc(OCC)cc2c1C under Potency: active: 7.38 µM
# Entry of CCOc1ccc(Cl)cc1/C=N/NC(=O)CNC(=O)c1ccccc1 under activity change, negative = inhibition: inactive: 0.415%
# Entry of COC(=O)c1sc2nc(CN3CCN(c4ccc(OC)cc4)CC3)[nH]c(=O)c2c1C under Potency: inconclusive: 5.22 µM [inhibitor, partial curve]
# Entry of CCC1C(c2ccccc2)NC(c2ccccc2)CC1(O)c1ccc(F)cc1 (stereo not drawn) under Potency: inconclusive: 3.29 µM [inhibitor, partial curve]

# Next compounds follow:

SMILES,Potency,"activity change, negative = inhibition"
O=c1c2ccccc2nc2n1C(CSCc1ccc(Cl)cc1Cl)CS2 (stereo not drawn),"inconclusive: 18.5 µM [inhibitor, single point]",
CCc1ccc(CNCc2ccc(OCC(O)CN(C)Cc3ccccc3)cc2)nc1 (stereo not drawn),"inconclusive: 10.4 µM [inhibitor, single point]",
CCOC(=O)c1cc(CC)sc1NC(=O)C(c1ccccc1)c1ccccc1,active: 8.28 µM,
CSC[C@@H]1NC(=S)N(c2ccc(C)cc2)C1=O,,inactive: 3.03%
O=S(=O)(NCc1ccc(Cl)cc1Cl)c1cccs1,"inconclusive: 0.0522 µM [inhibitor, full curve, poor fit]",
CC1CCCCC12NC(=O)N(CC(=O)NC1CCCc3ccccc31)C2=O (stereo not drawn),"inconclusive: 14.7 µM [inhibitor, single point]",
CC(NC(=O)C1CCN(C(=O)c2cccs2)CC1)c1ccc(S(N)(=O)=O)cc1 (stereo not drawn),,inactive: 1.27%
Cc1cc(NC(=O)c2cnn3c(C(F)F)cc(-c4ccccc4)nc23)no1,,inactive: -6.54%
CC(C)CC(=O)Nc1ccc(C(=O)COc2ccc(-c3nnco3)cc2)cc1,active: 2.08 µM,
CCCCNc1nc2sc3c(c2c(=O)n1-c1cccc(Cl)c1)CCN(C)C3,active: 0.37 µM,
CC1CCCN(c2ccc(C(=O)NCc3cccs3)cn2)C1 (stereo not drawn),"inconclusive: 2.94 µM [inhibitor, single point]",
CC(NS(=O)(=O)c1ccc2[nH]c(=O)c(=O)[nH]c2c1)C(=O)O (stereo not drawn),,inactive: 12.4%
CC(C)[C@H](NC(=O)c1ccccc1)C(=O)Nc1ccc2c(c1)OCO2,"inconclusive: 11.7 µM [inhibitor, single point]",
CC1CCCCN1CCCNC(=O)CCCN1C(=O)c2cccnc2Sc2ccccc21 (stereo not drawn),"inconclusive: 16.5 µM [inhibitor, partial curve]",
O=C(NN=C1CCCC1)c1cc(Br)ccc1O,"inconclusive: 13.1 µM [inhibitor, single point]",
Cc1ccc(N2C(=O)C3N=NN(CC(=O)N4N=C(c5ccccc5)CC4c4ccccc4)C3C2=O)cc1 (stereo not drawn),,inactive: -24.7%
CC1CN(C(=O)CSc2nnc(-c3ccccc3)o2)CC(C)O1 (stereo not drawn),,inactive: -18.7%
Cc1cc(C)n(CCCNC(=O)c2ccc(C)o2)n1,,inactive: -23.2%
COc1ccc(C(=O)NC(=S)Nc2cccc(S(=O)(=O)N3CCOCC3)c2)cc1,,inactive: -2.36%
N=c1oc2c3c4c(cc2cc1C(=O)Nc1ccccc1)CCCN4CCC3,active: 13.1 µM,
Cc1cc(NC(=O)CSc2nc(C(C)C)nc3sc4c(c23)CCC(C)C4)no1 (stereo not drawn),"inconclusive: 11.7 µM [inhibitor, single point]",
O=C1c2cccnc2C(Nc2ccc(Cl)cc2)N1Cc1cccs1 (stereo not drawn),"inconclusive: 18.5 µM [inhibitor, single point]",
Cc1ccc(N=C2NC(=O)/C(=C/c3cccnc3)S2)cc1C,"inconclusive: 4.15 µM [inhibitor, partial curve, poor fit]",
Cn1nc(C(=O)Nc2nnc(C3CC3)s2)c2ccccc2c1=O,"inconclusive: 11.7 µM [inhibitor, partial curve, poor fit]",
COCc1ccc(CN2CCC(C(=O)Nc3cccc(-c4cccc(Cl)c4)c3)CC2)o1,"inconclusive: 10.4 µM [inhibitor, partial curve]",

SMILES,Potency,"activity change, negative = inhibition"
C=CCOc1nc(N2CCCC2)nc(N2CCCC2)n1,,inactive: 50.3%
CCCOc1cccc(C(=O)Nc2ccc(CN3CCOCC3)cc2)c1,"inconclusive: 11.7 µM [inhibitor, single point]",
COc1ccc(S(=O)(=O)N2CCOC2CNC(=O)C(=O)NCc2ccc3c(c2)OCO3)cc1OC (stereo not drawn),"inconclusive: 18.5 µM [inhibitor, single point]",
Cn1cnnc1SCC(=O)NC1CCCN(Cc2ccccc2F)C1 (stereo not drawn),"inconclusive: 18.5 µM [inhibitor, single point]",
CC(C)(C)c1ccc(C(=O)Cn2cnnc2C#N)cc1,"inconclusive: 18.5 µM [inhibitor, partial curve, poor fit]",
O=C(Nc1ccc(Cl)cc1)c1nc[nH]c1C(=O)NCc1ccccc1,"inconclusive: 13.1 µM [inhibitor, single point]",
Cc1ccc(C)c(OCCC(=O)OCC(=O)N2CCN(S(=O)(=O)c3ccc(Cl)cc3)CC2)c1,,inactive: 43.8%
Cn1c(SCC(=O)NC2CCCCCC2)nnc1-c1ccco1,"inconclusive: 18.5 µM [inhibitor, single point]",
Cc1ccc(Sc2nc3ccc(C)cn3c(=O)c2/C=N/O)cc1,,inactive: -11%
CCC(C)(C)c1nnc(NC(=O)C2CC(=O)N(CCc3ccc(F)cc3)C2)s1 (stereo not drawn),"inconclusive: 9.28 µM [inhibitor, partial curve, poor fit]",
O=C(NCc1csc(-c2cccs2)n1)Nc1ccc(C(F)(F)F)cc1,"inconclusive: 11.7 µM [inhibitor, partial curve]",
CN(C)S(=O)(=O)c1cccc(NC(=O)NCCCl)c1,"inconclusive: 0.0033 µM [inhibitor, full curve, poor fit]",
O=C(NCCCNCc1ccccc1)c1ccccn1,"inconclusive: 16.5 µM [inhibitor, single point]",
CN(C)CCCNC(CC(=O)Nc1cccc([N+](=O)[O-])c1)C(=O)O (stereo not drawn),,inactive: 12.4%
O=C(O)/C=C/C(=O)NCc1csc2ccccc12,,inactive: 5.23%
CC(OC(=O)/C=C/c1ccccc1)C(=O)Nc1cccc(C#N)c1 (stereo not drawn),,inactive: 33.1%
Cc1[nH]c2ccc(-c3nnc(SCC(=O)c4ccc(F)cc4)o3)cc2c1C,"inconclusive: 5.86 µM [inhibitor, partial curve, poor fit]",
C[C@@H](C(=O)NC1CCN(Cc2ccccc2)CC1)N1C(=O)N2CCc3c([nH]c4ccccc34)[C@@]2(C)C1=O,"inconclusive: 18.5 µM [inhibitor, single point]",
Cc1nc(-c2ccccn2)sc1C(=O)Nc1ccc(F)cc1,,inactive: 0%
Cc1cc[n+](-c2nc3ccccc3nc2[N-]S(=O)(=O)c2cccs2)cc1C,,inactive: 342%
COCCn1nnnc1C(c1cc2cccc(C)c2[nH]c1=O)N1CCN(c2ccccc2F)CC1 (stereo not drawn),,inactive: 1.03%
NC(=O)C1CCCN(CC(=O)Nc2cc(S(=O)(=O)N3CCOCC3)ccc2N2CCCC2)C1 (stereo not drawn),"inconclusive: 11.7 µM [inhibitor, single point]",
O=C(COC(=O)Cc1cn2ccsc2n1)NC12CC3CC(CC(C3)C1)C2,"inconclusive: 4.15 µM [inhibitor, partial curve]",

# From PubChem BioAssay AID504834 (National Center for Advancing Translational Sciences (NCATS), 2011)
